We go through 60 compounds from PubChem BioAssay AID2685 (National Center for Advancing Translational Sciences (NCATS), 2010).

The nature of this assay: qHTS Assay for Lipid Storage Modulators in Drosophila S3 Cells.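 On cell number change: cells counted by Cell Tracker Red CMTPX staining in the red channel.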 The settings on record: BODIPY lipid droplet fluorescence, 18-24 h; for cell number change: measured here: cell count max response, cells fed with added oleic acid. Put shortly: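 Drosophila S3 cells got compounds at several concentrations plus oleic acid (400 uM solution). Laser-scanning cytometry with 488 nm excitation read lipid droplets at 500-530 nm and cells at 575-640 nm. Percent activity was relative to 20 uM Triacsin C.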

Setting [1] is: measured here: cell number channel AC50, cells fed with added oleic acid.
Setting [2] is: measured here: lipid fluorescence (Fed channel) AC50, cells fed with added oleic acid.

Some of the results follow. These are further read-outs of the screen, such as a control signal, another cell line or another target. No call is given for them. Most of these compounds were active or inconclusive in the main read-out, so they are no random draw. Potencies come from curve fits of mixed quality, noted in brackets.

On to `Cc1ccc(C)c(NC(=S)NNC(=O)c2csc(C)c2C)c1`, for which the cell number change is -63.2%. In addition, under setting [1], the half-maximal activity concentration (AC50) (usually the midpoint of the concentration-response curve, whichever way the signal moves) was 29.1 µM [falling, single point]. The AC50 under setting [2] is 2.91 µM [rising, single point].
`CC(=O)Nc1cccc(NC(=O)CSc2nnc(NC(=O)C3CC3)s2)c1`: the cell number change came out at 4.74%. Moreover, the AC50 under setting [2] was 0.00461 µM [falling, full curve, poor fit].
In the case of `CCCN(CC(=O)Nc1ccccc1OC)C(=O)c1cc(-c2cccs2)nn1-c1ccccc1`, the cell number change amounted to 35.5%. The AC50 under setting [1] was 0.461 µM [rising, full curve]. For the same compound, the AC50 under setting [2] was 0.651 µM [rising, full curve].
With `Cc1ccccc1CC(=O)N1CCCC(CCC(=O)N2CCN(c3ccccn3)CC2)C1` (stereo unspecified), the cell number change is -28.7%. Besides, the AC50 under setting [2] is 14.6 µM [falling, partial curve].
On to `COC(=O)c1c(C)[nH]c(C)c1-c1ccc(C)cc1`, for which the cell number change amounted to 26.6%. Besides, the AC50 under setting [1] was 1.84 µM [rising, partial curve, poor fit]. For the same compound, under setting [2], the AC50 was 2.91 µM [rising, partial curve].
`NNC(=O)c1cncc(Br)c1`: the cell number change was 5.12%.
With `COc1cccc(COC(=O)C2CC(=O)N(Cc3ccc(C)cc3)C2)c1OC` (stereo unspecified), the cell number change is 1.5%.
Take `O=C(Nc1cccc(F)c1)C1CCCN(S(=O)(=O)c2ccc(-n3cnnn3)cc2)C1` (stereo unspecified): the cell number change stood at 11.5%. Under setting [2], the AC50 is 6.51 µM [rising, single point].
`COc1ccccc1NC(=O)CSC1=NC(=O)C(Cc2ccccc2)C(=O)N1` (stereo unspecified): the cell number change was -2.63%. The AC50 under setting [2] is 5.62 µM [rising, single point].
Regarding `COc1ccc(C2=NS(=O)(=O)N(C)C(C(=O)NCc3ccc(F)cc3)=C2)cc1OC`, the cell number change was determined as 10.2%. Moreover, the AC50 under setting [1] was 0.291 µM [rising, full curve, poor fit]. In addition, under setting [2], the AC50 was 0.0651 µM [rising, full curve, poor fit].
In the case of `COc1ccc(CN(C)C(=O)CNC(=O)CNC(=O)c2ccc(Cl)cc2Cl)cc1F`, the cell number change was -16.7%. Besides, the AC50 under setting [2] was 0.58 µM [rising, single point].
Regarding `CCOc1ccccc1C(=O)N/N=C/c1coc2ccc(C)cc2c1=O`, under setting [2], the AC50 is 16.4 µM [falling, partial curve].
With `Cc1ccc2occ(/C=N/NC(=O)c3ccncc3)c(=O)c2c1`, the cell number change was 3.66%.
Take `O=C(CSc1nnc(-c2cccc(S(=O)(=O)N3CCCCC3)c2)o1)c1ccc[nH]1`: the cell number change was -31.6%. The AC50 under setting [1] was 1.16 µM [falling, full curve, poor fit]. The AC50 under setting [2] is 0.58 µM [rising, single point].
On to `Cc1ccc(C2C(C(=O)c3cccs3)=C(O)C(=O)N2c2cccc(C)n2)cc1` (stereo unspecified), for which the cell number change stood at 15.9%. Further, under setting [2], the AC50 was 1.46 µM [rising, partial curve, poor fit].
`Cc1cc(N2CCOCC2)ccc1/C=C1\NC(=O)N(CC(=O)Nc2ccc(F)cc2)C1=O`: the cell number change is -13.8%. Further, the AC50 under setting [2] was 18.4 µM [falling, single point].
As for `O=C(OCc1nnc(-c2ccccc2)o1)c1cc(Cl)ccc1[N+](=O)[O-]`, under setting [2], the AC50 was 29.1 µM [rising, single point].
Take `COc1ccc(C(=O)Cc2cc3cccc(OC)c3oc2=O)cc1`: the cell number change came out at 25.9%. Besides, the AC50 under setting [2] was 29.1 µM [rising, single point].
Turning to `Cc1ccc(/C=C/C(=O)OC(C)C(=O)Nc2ncc(Cl)cc2Cl)o1` (stereo unspecified), the cell number change turned out to be 45.5%. Further, the AC50 under setting [1] was 29.1 µM [rising, single point]. Moreover, the AC50 under setting [2] is 20.6 µM [rising, single point].
For the compound `CCOC(=O)C1C(=O)NC(N2CCc3ccccc32)=NC1c1ccccc1` (stereo unspecified), the cell number change was -26.9%.
Consider `Cc1ccc(SCC(=O)OCC(=O)NCc2cccs2)cc1`, for which the cell number change was -6.81%. The concentration at half-maximal activity (AC50) under setting [2] is 6.51 µM [rising, single point].
In the case of `O=C(Nc1ccc(Cl)c(S(=O)(=O)N2CCOCC2)c1)c1cn2ccccc2n1`, the cell number change worked out at 1.97%.
As for `C=CCOc1cccc(C(=O)N2CCCC(CCC(=O)NCc3ccccc3F)C2)c1` (stereo unspecified), the cell number change was -43.2%. In addition, the AC50 under setting [1] is 32.6 µM [falling, single point]. Also, the AC50 under setting [2] was 23.1 µM [falling, partial curve].
With `CCCOC(=O)c1ccc(Oc2c(-c3ccc(OCC)cc3O)n[nH]c2C)cc1`, the cell number change was -91.2%. Also, under setting [1], the AC50 was 23.1 µM [falling, partial curve]. In addition, the AC50 under setting [2] was 18.4 µM [falling, single point].
For `Cc1cccc(NC(=O)c2cccc(C(F)(F)F)c2)c1`, the cell number change worked out at 14.3%.
Turning to `Cc1cccc(-c2nnc(SCC(=O)Nc3nc4c(s3)CCCC4)n2C)c1`, the cell number change was -17.7%. In addition, the AC50 under setting [2] was 20.6 µM [falling, partial curve].
Turning to `Cc1ccc(NC(=O)CC(C(=O)O)c2ccccc2)cc1` (stereo unspecified), the AC50 under setting [1] is 0.82 µM [falling, single point].
For the compound `CC(OC(=O)CNC(=O)c1cccc(F)c1)C(=O)NC1CCCCC1C` (stereo unspecified), the cell number change was -42.1%. Under setting [1], the AC50 is 32.6 µM [falling, partial curve].
Regarding `O=C(Nc1ccc(F)c(F)c1)C1CCCN(S(=O)(=O)c2cnc[nH]2)C1` (stereo unspecified), the cell number change was -9.88%. For the same compound, the AC50 under setting [2] was 32.6 µM [falling, single point].
Turning to `COCCn1c(SCC(=O)Nc2ncc(Cl)c(C)c2Cl)nc2ccccc21`, the cell number change was 33.3%. In addition, under setting [1], the AC50 is 6.51 µM [rising, full curve, poor fit]. Besides, the AC50 under setting [2] was 0.731 µM [rising, full curve, poor fit].
For the compound `Cc1cccc(OCc2nnc(SCC(=O)N3CCc4ccccc43)n2C)c1`, the cell number change is -18.5%. Besides, the AC50 under setting [2] was 29.1 µM [falling, single point].
Take `O=C(Nc1ccc(Cl)cc1C(=O)O)c1ccc2c(c1)C(=O)N(Cc1ccco1)C2=O`: the cell number change was -23.3%. Moreover, the concentration at half-maximal activity (AC50) under setting [2] is 0.00461 µM [falling, full curve, poor fit].
Regarding `O=C(CNC(=O)c1ccccc1F)N/N=C/c1ccco1`, the cell number change came out at 20.6%. Moreover, the AC50 under setting [2] was 25.9 µM [rising, single point].
`COc1ccc2c(c1)c(CC(=O)Nc1cc(C)ccc1C)c(C)n2C(=O)c1ccc(Cl)cc1`: the cell number change came out at 18.4%. The AC50 under setting [2] is 0.58 µM [rising, full curve].
On to `Cc1cccc(OCC(=O)NN2C(=O)C3C4C=CC(O4)C3C2=O)c1` (stereo unspecified), for which the cell number change was -4.23%. The AC50 under setting [2] was 32.6 µM [falling, single point].
For the compound `O=C(NCc1ccc(Cl)cc1)N1CCN(Cc2ccccc2)CC1`, the cell number change is -17.2%. Under setting [2], the AC50 is 23.1 µM [falling, single point].
As for `CSc1ccc(/C=N/N2CCN(Cc3ccc(C)cc3C)CC2)cc1`, the cell number change was -45%. Further, under setting [1], the AC50 was 29.1 µM [falling, single point]. Further, under setting [2], the AC50 is 29.1 µM [falling, single point].
Regarding `Cc1ccc([N+](=O)[O-])cc1S(=O)(=O)N1CCN(C)CC1`, the cell number change is -1.27%. In addition, the AC50 under setting [1] was 3.26 µM [falling, single point].
For `CC1=NNC(=O)C(CC(=O)Nc2ccc(Cl)c(Cl)c2)C1` (stereo unspecified), the cell number change worked out at 2.81%. For the same compound, the AC50 under setting [1] is 0.651 µM [rising, partial curve, poor fit].
Consider `CCCN(CC1CC1)C(=O)CSc1ncnc2sccc12`, for which the cell number change turned out to be 7.57%.
Still for that read-out and setting: the same measure for `CN1C(=O)c2ccccc2N(C)C1c1cccs1` (stereo unspecified): 2.71%; for `Cc1cc(NC(=O)c2cccs2)n(-c2nc3ccccc3[nH]2)n1`: -14.6%.
Take `CCOc1ccc(NC(=O)C(CC(=O)O)Cc2ccccc2)cc1` (stereo unspecified): the cell number change was -31.2%. Further, under setting [1], the half-maximal activity concentration (AC50) is 20.6 µM [falling, single point]. Besides, the AC50 under setting [2] was 25.9 µM [falling, single point].
Turning to `O=C(Nc1cccc(-n2cccn2)c1)C1CCCN(Cc2ccc(C#CCCO)cc2)C1` (stereo unspecified), the cell number change worked out at 24.6%. The AC50 under setting [2] was 4.61 µM [rising, single point].
As to `COc1cc(NS(=O)(=O)c2ccc(Nc3nc(-c4ccccn4)cs3)cc2)nc(OC)n1`, the cell number change worked out at 14.7%. For the same compound, the AC50 under setting [2] is 10.3 µM [rising, partial curve].
Regarding `CN(C)C1=NCCN1CC1CCCCC1`, the cell number change is -16.4%.
For `Cc1c(OC(C)C(=O)N2C[C@H]3C[C@@H](C2)c2cccc(=O)n2C3)ccc2c3c(c(=O)oc12)CCC3` (stereo partly specified), the cell number change is -0.324%. The AC50 under setting [2] is 29.1 µM [falling, single point].
Turning to `COc1ccc(C(=O)Nc2ccc3[nH]ncc3c2)cc1`, the cell number change is 3.7%. Further, the AC50 under setting [2] was 29.1 µM [falling, single point].
With `Cc1cc(C(N)=O)c2cc(Br)ccc2n1`, under setting [2], the AC50 was 6.51 µM [rising, single point].
On to `O=C(CCc1ccccc1)NNC(=O)c1ccc(Cl)cc1`, for which the cell number change was determined as 4.76%. In addition, the AC50 under setting [2] is 2.31 µM [rising, partial curve, poor fit].
For `CC(C)C(NC(=O)c1ccco1)C(=O)OCC(=O)N1CC(=O)Nc2ccccc21` (stereo unspecified), the cell number change is 3.57%. Further, the AC50 under setting [2] is 7.31 µM [rising, partial curve, poor fit].
In the case of `COc1ccccc1N1CCN(C(=O)CN2C(=O)C3CCCCC3C2=O)CC1` (stereo unspecified), the cell number change worked out at 12.1%. Under setting [2], the AC50 is 0.00517 µM [falling, full curve, poor fit].
With `CC1=C(/C=C/C(C)=C/C=C/C(C)=C/C(=O)Nc2ccc(O)cc2)C(C)(C)CCC1`, the cell number change was -88.8%. Besides, under setting [1], the AC50 was 5.17 µM [falling, single point].
For `CC(=O)Nc1ccc(OCC(=O)N2CCc3ccccc3C2)cc1`, the cell number change was found to be 15.4%. Also, the AC50 under setting [2] is 5.17 µM [falling, single point].
On to `COc1ccc(S(=O)(=O)N2CCCCC2)cc1NC(=O)CCOc1cc(C)ccc1C`, for which the cell number change is 4.67%. Besides, the AC50 under setting [2] is 3.26 µM [rising, partial curve, poor fit].
With `Cc1nccc(-c2ccc(-n3c(C)ccc3C)cc2)n1`, the AC50 under setting [2] was 23.1 µM [rising, partial curve].
For the compound `CCOC(=O)CN1Cc2cccc(C(=O)O)c2C1=O`, the cell number change came out at 9.69%. The AC50 under setting [2] is 0.92 µM [falling, full curve, poor fit].
As for `CCOC(=O)N1CCN(S(=O)(=O)N2CCCC(C(=O)NCc3ccc(OC)cc3)C2)CC1` (stereo unspecified), the cell number change was -19.9%. Also, the AC50 under setting [2] was 2.31 µM [falling, single point].
Consider `COc1ccc(CCNc2nc3ccc(C)cc3n3cnnc23)cc1OC`, for which the cell number change was determined as 20.2%.
On to `Nc1cc(-c2ccc(OC(F)(F)F)cc2)nn1-c1ccc(Cl)c(Cl)c1`, for which the cell number change is -51.8%. The AC50 under setting [1] is 7.31 µM [falling, partial curve, poor fit]. The AC50 under setting [2] is 20.6 µM [falling, partial curve, poor fit].
